Results reported in patent publication US9464112B2, “Peptides having NF-κB inhibitory activity, or composition comprising same” (KNU-INDUSTRY COOPERATION FOUNDATION, priority 2012, dated 2016).
For some of these results: At least one compound was matched to its structure with a doubt left. Some results were stated once for a whole list of compounds, not compound by compound.

Tests used:
[1] = tested on: trans-endothelial migration of WEHI274.1 monocytes; assay: Trans-endothelial migration of monocytes WEHI274.1 through TNF-α-activated bEnd.3 endothelial cells (Boyden chamber); type: cell-based, mouse; settings: peptide 100 μM, TNF-α 25 ng/ml, bEnd.3 / WEHI274.1, 4 hours
[2] = tested on: human breast cancer cells MCF-7; assay: Invasion of human breast cancer cells MCF-7 into matrigel (transwell); type: cell-based; settings: peptide 100 μM, 0.1% BSA, MCF-7, matrigel transwell
TNF-α = TNF-α expression in UVB-irradiated human keratinocytes HaCaT (Western blotting); type: cell-based; settings: UVB 312 nm 12.5 mJ/cm^2, 48 hours, peptide 0.1˜2 μM, dose-dependent
Protocol: (§1) We evaluated the inhibitory activities of the peptide of the present invention on expressions of the representative pro-inflammatory factors, i.e., TNF-α and IL-1α, the expressions of which are induced by ultraviolet stimulation. Specifically, the HaCaT cells (Molecular Biology Engineering Lab, Chemical & Biochemical Engineering, Dongguk University) were irradiated with UVB (312 nm, 12.5 mJ/cm^2) and then treated with the peptide of SEQ ID NO: 1 in the concentrations of 0.1˜2 μM. At this time, the control group was treated with dexamethasone (Dex) having the immunosuppressive function, at the irradiation of UVB. After 48 hours, the cell extracts were subject to the Western blotting assay so as to measure the expressions of TNF-α and IL-1α.

IL-1α = IL-1α expression in UVB-irradiated human keratinocytes HaCaT (Western blotting); type: cell-based; settings: UVB 312 nm 12.5 mJ/cm^2, 48 hours, peptide 0.1˜2 μM, dose-dependent
Protocol: as §1

Row | Compound | reduction of trans-endothelial migration of monocytes as compared with control group [1] | reduction of base membrane invasion rate of human breast cancer cells relative to control group [2] | expression of TNF-α (TNF-α) | expression of IL-1α (IL-1α)
1 | Asp-Val-His (DVH; Peptide fragment) [SEQ ID NO: 4, peptide fragment derived from the NF-κB p65 subunit] | 25˜40% | 60% to 80% | – | –
2 | C[C@@H]1C[C@H]2[C@@H]3CCC4=CC(=O)C=C[C@]4(C)[C@@]3(F)[C@@H](O)C[C@]2(C)[C@@]1(O)C(=O)CO [dexamethasone, reference compound] | – | – | reduced | reduced
